The source of these data is patent US20240327517A1.

Protein sequences, listed by entry. Tags and fused reporters are not part of them. Lines headed by an entry give the natural chain unless they say otherwise; changes in a name come on top. Residues count along the entry.
UniProt P01732: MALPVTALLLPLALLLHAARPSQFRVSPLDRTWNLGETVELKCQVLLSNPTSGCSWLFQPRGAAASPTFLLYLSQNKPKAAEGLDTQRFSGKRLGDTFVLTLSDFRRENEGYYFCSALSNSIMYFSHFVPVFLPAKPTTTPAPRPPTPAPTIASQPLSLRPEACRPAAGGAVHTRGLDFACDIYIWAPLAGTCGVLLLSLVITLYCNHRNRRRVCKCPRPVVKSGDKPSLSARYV
CD8 on MC38-CD8 transplantation tumors and CD8+ humanized tissues of PBMC humanized mice: residues 22-235 of P01732
CD8α Fc fusion protein: residues 22-182 of P01732

The target of assay [1] is CD8α Fc fusion protein (UniProt P01732). Briefly: ELISA on coated CD8α Fc fusion protein.
For assay [2], the target named is CD8 on MC38-CD8 transplantation tumors and CD8+ humanized tissues of PBMC humanized mice (human) (UniProt P01732). Briefly: in vivo micro-PET in PBMC humanized mice bearing MC38-CD8 tumours; uptake falls with rising total protein dose.
Assay [3] has the same target. In words: in vivo and ex vivo biodistribution (PET ROI and γ counter) in PBMC humanized mice bearing MC38-CD8 tumours; uptake falls with rising total protein dose.

No constants are given. Whether binding was seen depends on the method and setting. Some entries that bind do so weakly or less than the wild type.

B1: C37H-GSC after TCEP reduction (VHH)
VHH: QVQLVESGGGLVQPGGSLRLSCAASGLTFSDYAIGWFRQAPGKEREGISCIRIYDGNTYYADSVKGRFTISRDNSKNHVYLQMNSLRAEDTAVYYCAAGSYYSCSVYPAYDLDYWGKGTLVTVSS
modifications: C-terminal cysteine freed by TCEP reduction
On to B1, for which the binding result in assay [1] was “binds”.

B2: NODAGA-GSC-C37H single-domain antibody (VHH)
VHH: QVQLVESGGGLVQPGGSLRLSCAASGLTFSDYAIGWFRQAPGKEREGISCIRIYDGNTYYADSVKGRFTISRDNSKNHVYLQMNSLRAEDTAVYYCAAGSYYSCSVYPAYDLDYWGKGTLVTVSS
modifications: Maleimide-NODAGA conjugated to the cysteine at the C-terminus
On to B2, for which the binding entry in assay [1] is on record as “binds”.

B3: ^68Ga-NODAGA-GSC-C37H single-domain antibody (VHH)
VHH: QVQLVESGGGLVQPGGSLRLSCAASGLTFSDYAIGWFRQAPGKEREGISCIRIYDGNTYYADSVKGRFTISRDNSKNHVYLQMNSLRAEDTAVYYCAAGSYYSCSVYPAYDLDYWGKGTLVTVSS
modifications: Maleimide-NODAGA on the C-terminal cysteine, chelating 68Ga
In the case of B3, the binding entry in assay [2] and in assay [3] was “binds” in each case.
